Measured values published in US20090092614A1.
Results are given in words; binding and its absence hold for the method and conditions named. Some binding calls cover weakened binding; strength is not graded here.

Chains of the proteins cited; added tags and fusions are not shown. Lines headed by an entry give the natural chain unless they say otherwise; changes in a name come on top.
UniProt P08069: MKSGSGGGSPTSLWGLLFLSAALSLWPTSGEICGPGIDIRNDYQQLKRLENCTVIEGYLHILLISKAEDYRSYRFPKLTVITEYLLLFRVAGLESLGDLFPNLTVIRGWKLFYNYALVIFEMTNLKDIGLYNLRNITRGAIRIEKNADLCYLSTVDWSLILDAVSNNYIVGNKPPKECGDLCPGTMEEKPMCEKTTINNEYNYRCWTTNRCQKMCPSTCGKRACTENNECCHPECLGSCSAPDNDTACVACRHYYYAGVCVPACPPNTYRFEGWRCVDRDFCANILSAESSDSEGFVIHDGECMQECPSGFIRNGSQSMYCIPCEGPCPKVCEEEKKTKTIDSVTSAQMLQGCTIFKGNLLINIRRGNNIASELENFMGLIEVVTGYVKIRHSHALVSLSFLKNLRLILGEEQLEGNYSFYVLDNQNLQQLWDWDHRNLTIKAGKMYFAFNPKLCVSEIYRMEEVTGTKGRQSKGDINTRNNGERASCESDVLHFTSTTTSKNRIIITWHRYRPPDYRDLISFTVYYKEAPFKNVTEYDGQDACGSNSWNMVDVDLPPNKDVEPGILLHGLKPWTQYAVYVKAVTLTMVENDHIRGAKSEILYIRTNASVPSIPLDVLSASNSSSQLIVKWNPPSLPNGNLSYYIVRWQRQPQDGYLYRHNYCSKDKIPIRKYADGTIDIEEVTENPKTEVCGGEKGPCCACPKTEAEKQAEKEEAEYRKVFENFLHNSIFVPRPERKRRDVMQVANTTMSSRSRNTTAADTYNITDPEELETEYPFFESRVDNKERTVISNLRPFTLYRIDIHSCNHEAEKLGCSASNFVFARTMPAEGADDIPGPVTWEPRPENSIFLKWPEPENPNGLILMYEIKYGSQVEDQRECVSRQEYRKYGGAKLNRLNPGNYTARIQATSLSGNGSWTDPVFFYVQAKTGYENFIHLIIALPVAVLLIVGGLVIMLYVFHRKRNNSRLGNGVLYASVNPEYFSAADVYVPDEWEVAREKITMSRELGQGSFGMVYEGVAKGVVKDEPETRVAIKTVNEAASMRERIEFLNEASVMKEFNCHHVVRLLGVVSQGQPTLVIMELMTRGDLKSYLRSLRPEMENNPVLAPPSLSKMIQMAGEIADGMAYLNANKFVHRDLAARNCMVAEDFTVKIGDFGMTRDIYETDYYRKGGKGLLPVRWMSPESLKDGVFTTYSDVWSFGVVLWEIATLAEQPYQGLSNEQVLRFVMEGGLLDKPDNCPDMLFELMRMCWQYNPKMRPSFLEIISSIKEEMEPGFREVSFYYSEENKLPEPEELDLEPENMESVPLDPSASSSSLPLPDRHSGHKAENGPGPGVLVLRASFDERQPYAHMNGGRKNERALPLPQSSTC

How the values were obtained:
[1] = target: human IGF-1R(1-903)-Fc (human) (UniProt P08069); assay: ELISA
[2] = target: human IGF-1R (full length, on cells) (human) (UniProt P08069); assay: flow cytometry
[3] = target: human IGF-1R (full length, on cells) (human) (UniProt P08069); assay: flow cytometry titration on MCF-7 cells
[4] = target: hIGF-1R-Fc mutant SD019 (human) (UniProt P08069); assay: KD grade of mutant hIGF-1R-Fc; NE = KD within 2.5-fold of WT
[5] = target: human IGF-1R (full length, on cells) (human) (UniProt P08069); assay: flow cytometry, IGF-1R/3T3 transfectants against 3T3 parent cells
[6] = target: human IGF-1R(1-903)-Fc (human) (UniProt P08069); assay: ELISA on plate-coated soluble IGF-1R-Fc, goat anti-human kappa-HRP
[7] = target: human IGF-1R(1-903)-Fc (human) (UniProt P08069); assay: solid-phase RIA, inhibition of 125I-IGF-2 binding to immobilized IGF-1R-Fc
[8] = target: human IGF-1R(1-903)-Fc (human) (UniProt P08069); assay: competition ELISA, 320 nM human IGF-1 His binding to biotinylated hIGF-1R-Fc, anti-His-HRP
[9] = target: human IGF-1R(1-903)-Fc (human) (UniProt P08069); assay: competition ELISA, 320 nM human IGF-2 His binding to biotinylated hIGF-1R-Fc, anti-His-HRP

| binding [1] | binding [2] | binding [3] | binding [4] | binding [5] | binding [6] | binding [7] | binding [8] | binding [9] | Binder |
| --- | --- | --- | --- | --- | --- | --- | --- | --- | --- |
| binds | binds | binds | binds | binds | binds | binds | binds | binds | M14-C03.G4.P.agly (antibody, human IgG4 S228P, kappa, V domains shown) VH: EVQLLESGGGLVQPGGSLRLSCAASGFTFSKYMMSWVRQAPGKGLEWVSYISPSGGLTWYADSVKGRFTISRDNSKNTLYLQMNSLRAEDTAVYYCARDGARGYGMDVWGQGTTVTVSS VL: DIQMTQSPATLSLSPGERATLSCRASQSVSSYLAWYQQKPGQAPRLLIYDASNRATGIPARFSGSGSGTDFTLTISSLEPEDFAVYYCQQRSNWPPEVTFGPGTKVDIKR |
| – | – | – | – | – | – | – | – | binds | P1E2 (chimeric antibody) (antibody, V domains shown) VH: QVQLQQPGAELVKPGASVKLSCKASGYTFTSYWMHWVKQRPGQGLEWIGEINPTYGRSNYNEKFKSKATLTVDKSSSTAYMQLSSLTSEDSAVYYCARLVRLRYFDVWGAGTTVTVSS VL: DIVMTQAAFSNPVTLGTSASISCRSSKSLLHSNGITYLYWYLQKPGQSPQLLIYQMSNLASGVPDRFSSSGSGTDFTLRISRVEAEDVGVYYCAQNLELPYTFGGGTKLEIK |
